These are yes or no findings as the source states them, for the method shown. In cells and extracts the contact can be indirect. Some results given as binding are weak or reduced against the parent protein; the word gives no strength.
Target: Stanniocalcin-2 (human (endogenous in human nasopharyngeal carcinoma cell lines 6-10B / CNE1)) (UniProt O76061)
Experiment: co-IP; Pierce Crosslink Immunoprecipitation Kit; cells lysed in RIPA lysis buffer (25 mM Tris-HCl, pH 7.4, 0.15 M NaCl, 0.001 M EDTA, 1% NP-40, 5% glycerol) with protease inhibitors; lysate pre-cleared, immunoprecipitated with anti-STC2 antibody overnight at 4 °C; western blot

Protein sequences, listed by entry. Tags and fused reporters are not part of them. Residues count along the entry.
UniProt O76061, residues 25-302: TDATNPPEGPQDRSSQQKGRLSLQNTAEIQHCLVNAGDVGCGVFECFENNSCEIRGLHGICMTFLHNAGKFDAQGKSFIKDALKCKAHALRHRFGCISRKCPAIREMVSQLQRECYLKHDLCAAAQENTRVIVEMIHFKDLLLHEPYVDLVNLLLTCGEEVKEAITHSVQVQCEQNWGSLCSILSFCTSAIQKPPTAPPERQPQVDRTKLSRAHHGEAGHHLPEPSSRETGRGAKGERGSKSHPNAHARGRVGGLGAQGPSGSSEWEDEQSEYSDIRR
UniProt P05107, residues 23-769: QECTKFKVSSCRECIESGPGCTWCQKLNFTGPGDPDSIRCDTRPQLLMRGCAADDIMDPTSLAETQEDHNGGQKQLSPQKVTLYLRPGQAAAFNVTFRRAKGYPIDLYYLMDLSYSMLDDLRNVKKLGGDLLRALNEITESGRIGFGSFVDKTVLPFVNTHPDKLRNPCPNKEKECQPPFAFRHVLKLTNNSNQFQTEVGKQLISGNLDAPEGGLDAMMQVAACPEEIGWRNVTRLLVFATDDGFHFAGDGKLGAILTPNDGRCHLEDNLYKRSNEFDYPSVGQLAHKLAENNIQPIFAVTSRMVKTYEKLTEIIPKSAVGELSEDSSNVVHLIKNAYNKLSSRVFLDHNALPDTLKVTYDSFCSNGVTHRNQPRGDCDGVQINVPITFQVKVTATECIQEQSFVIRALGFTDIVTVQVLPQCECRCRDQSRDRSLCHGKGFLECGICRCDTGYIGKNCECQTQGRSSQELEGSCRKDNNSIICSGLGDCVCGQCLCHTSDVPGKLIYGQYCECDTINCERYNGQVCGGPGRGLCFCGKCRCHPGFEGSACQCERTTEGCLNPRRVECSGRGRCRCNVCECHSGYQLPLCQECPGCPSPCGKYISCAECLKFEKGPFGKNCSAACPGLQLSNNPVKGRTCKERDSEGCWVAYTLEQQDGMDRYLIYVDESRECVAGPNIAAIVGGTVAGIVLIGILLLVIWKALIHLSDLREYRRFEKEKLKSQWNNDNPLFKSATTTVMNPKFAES

**Q.** For “integrin β2 (from UniProt P05107 23-769)”, which binding is on record?
**A.** binds
